In PubChem BioAssay AID2685 (National Center for Advancing Translational Sciences (NCATS), 2010) one finds cell number change and AC50 data, which are given here for 35 molecules.

Each structure is given as a SMILES string. The list shows a part of the results. These are further read-outs of the screen, such as a control signal, another cell line or another target. No call is given for them. The list favours compounds with an active or inconclusive main result. The note in brackets gives the kind of curve behind each potency; many fits are weak.

This test in a line: qHTS Assay for Lipid Storage Modulators in Drosophila S3 Cells.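 For cell number change: cells counted by Cell Tracker Red CMTPX staining in the red channel.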 The note with it: BODIPY lipid droplet fluorescence, 18-24 h; for cell number change: measured here: cell count max response, cells fed with added oleic acid. The method in brief:
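Drosophila S3 cells got compounds at several concentrations plus oleic acid (400 uM solution). Laser-scanning cytometry with 488 nm excitation read lipid droplets at 500-530 nm and cells at 575-640 nm. Percent activity was relative to 20 uM Triacsin C.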
In general terms: In qHTS, concentration-response curves come from the screen itself.

Setting [1] is: measured here: lipid fluorescence (Fed channel) AC50, cells fed with added oleic acid.
The mark [2] stands for this setting: measured here: cell number channel AC50, cells fed with added oleic acid.

Consider `COc1cc(NC(c2ccccc2)c2ccccc2)cc(OC)c1OC`, for which the cell number change is -10.7%. Also, under setting [1], the AC50 – broadly, the midpoint of the concentration-response curve, whichever way the signal moves – is 0.82 µM [falling, partial curve].

On to `C=CCN(C(=O)CNS(=O)(=O)c1ccccc1)C(C(=O)NCCOC)c1ccncc1` (centres undefined), for which the cell number change was found to be 16.2%.

As for `CC1(C)Cc2cccc(OCC(=O)Nc3cc(C(F)(F)F)ccc3N3CCOCC3)c2O1`, the cell number change worked out at 20.9%. In addition, under setting [2], the AC50 was 0.461 µM [rising, full curve].

As to `CC(=O)c1cccc(NC(=S)N2CCCC2)c1`, the cell number change is -11.9%. Also, under setting [1], the AC50 is 29.1 µM [falling, single point].

Take `CC1CCCN(C(=O)CSc2nnc(-c3ccc(O)cc3)o2)C1` (centres undefined): the cell number change was -13.2%.

For `C=CCn1c(O)c(C2=c3ccccc3=NC2=O)s/c1=N/c1nccs1`, the cell number change amounted to 9.75%. Further, the AC50 under setting [1] was 0.0731 µM [rising, full curve, poor fit].

Regarding `CC(=O)c1ccc(N2CCN(C(=O)CNS(=O)(=O)c3ccc4c(c3)OCCCO4)CC2)c(F)c1`, the cell number change is 0.314%.

For the molecule `O=C(CSc1nnc(-c2cccnc2)n1-c1ccccc1)NCc1ccc2c(c1)OCO2`, the AC50 under setting [1] is 0.103 µM [rising, full curve, poor fit].

On to `COC(=O)c1ccc(COC(=O)c2cccnc2Cl)cc1`, for which the cell number change came to 3.85%. For the same molecule, under setting [1], the AC50 was 0.0058 µM [rising, full curve, poor fit].

For the molecule `CCCCCC(=O)O[C@]1(C(C)=O)CC[C@H]2[C@@H]3CCC4=CC(=O)CC[C@]4(C)[C@H]3CC[C@@]21C`, the cell number change worked out at 1.97%. Under setting [1], the AC50 was 2.06 µM [rising, partial curve].

With `CCC(NC(=O)C(C)NC)C(=O)N1CCCC1C(=O)NC1CCCc2ccccc21` (centres undefined), the cell number change was -21.1%.

`COc1cc(C2NC(=O)NC(c3ccccc3)=C2C(C)=O)c(Cl)cc1OCC(=O)O` (centres undefined): the cell number change is 16.6%. In addition, the concentration at half-maximal activity (AC50) under setting [2] is 6.51 µM [rising, single point].

Regarding `Cc1noc(C)c1/C=N/Nc1ccccn1`, the cell number change is 50.3%. Also, the AC50 under setting [2] was 29.1 µM [rising, partial curve, poor fit]. In addition, under setting [1], the AC50 is 0.184 µM [rising, full curve, poor fit].

Regarding `CCN(CC)c1ccc(-c2nn3c(-c4n[nH]c5c4CCC5)nnc3s2)cc1`, the cell number change was -32.4%. For the same molecule, the AC50 under setting [2] is 11.6 µM [falling, partial curve]. In addition, the AC50 under setting [1] was 0.13 µM [rising, full curve, poor fit].

For `COc1ccc(C(=O)CSc2nccn2C)cc1`, the AC50 under setting [1] is 4.61 µM [rising, partial curve].

As to `C=CCOc1ccc(C(=O)c2ccccc2)c(OCC(=O)NC2(C#N)CCCC2)c1`, the cell number change is -16.2%. Besides, the AC50 under setting [1] is 0.651 µM [rising, full curve].

With `O=C(CSc1nnc(Cc2cccs2)n1C1CCCCC1)N1CCN(C(=O)c2ccco2)CC1`, the cell number change is 29.5%. In addition, under setting [1], the AC50 is 3.26 µM [rising, single point].

As for `CN(C)S(=O)(=O)c1ccc(Cl)c(NC(=O)COC(=O)CCSc2ccccc2)c1`, the cell number change was 13.9%. Besides, the AC50 under setting [1] was 0.116 µM [rising, full curve, poor fit].

As to `CC(=O)Oc1ccc(N(C(C)=O)S(=O)(=O)c2ccc(C)cc2C)c2ccccc12`, the cell number change was 10.2%. The AC50 under setting [1] was 23.1 µM [rising, single point].

`O=C(CN1C(=O)c2ccccc2C1=O)N1CCN(c2nnc(-c3ccccc3)c3ccccc23)CC1`: the AC50 is, setting by setting: under setting [2], 2.31 µM [rising, partial curve]; under setting [1], 4.11 µM [rising, partial curve].

As for `NC(=O)CN1CCCC1c1ccc2c(c1)OCCO2` (centres undefined), the cell number change was -33.3%. Moreover, under setting [2], the concentration at half-maximal activity (AC50) is 29.1 µM [falling, partial curve, poor fit]. For the same molecule, the AC50 under setting [1] was 6.51 µM [falling, single point].

Turning to `Cc1ccc(Cn2nc(C)c(NC(=O)c3cc(-c4ccc5c(c4)OCO5)on3)c2C)cc1`, the cell number change is -66.1%. Under setting [2], the AC50 was 16.4 µM [falling, single point]. In addition, the AC50 under setting [1] was 7.31 µM [falling, partial curve].

Regarding `Oc1cc2c(cc1O)CN(C(=S)NCCc1ccc(Cl)cc1)CCC2`, the cell number change was -46.1%. The concentration at half-maximal activity (AC50) under setting [2] was 25.9 µM [falling, single point]. Besides, the AC50 under setting [1] was 29.1 µM [falling, single point].

Consider `CCCN(CC(=O)Nc1ccccc1C)C(=O)COc1c(Cl)cccc1Cl`, for which the AC50 under setting [2] was 3.66 µM [falling, partial curve] and the AC50 under setting [1] is 29.1 µM [falling, single point].

On to `CN(C)S(=O)(=O)c1ccc(NC=O)cc1`, for which the cell number change worked out at 3.12%. Also, under setting [1], the half-maximal activity concentration (AC50) is 29.1 µM [falling, single point].

`O=C(Nc1nc2ccccc2s1)C1c2ccccc2Oc2ccccc21`: the cell number change came to 7.89%. Under setting [1], the AC50 is 2.59 µM [falling, partial curve, poor fit].

In the case of `O=C1CCC(=O)N1Cc1c(Cl)cccc1Cl`, the cell number change is 31.5%. The AC50 under setting [2] was 0.00411 µM [rising, full curve, poor fit]. Besides, the concentration at half-maximal activity (AC50) under setting [1] is 20.6 µM [rising, partial curve].

With `Cn1nnc2cc(C(=O)NC3CCCCC3)ccc21`, the cell number change worked out at 8.86%.

As for `O=S(=O)(c1ccc(C2CCCCC2)cc1)N1CCOCC1`, the cell number change was -18%. For the same molecule, the AC50 under setting [1] is 16.4 µM [rising, single point].

In the case of `COc1cc(Cl)c(C)cc1NC(=O)Cc1ccc(OC)c(OC)c1`, the cell number change amounted to 2.15%. Moreover, the AC50 under setting [2] was 2.06 µM [falling, partial curve]. The AC50 under setting [1] was 3.26 µM [falling, partial curve].

On to `O=C(CN(c1cccc(C(F)(F)F)c1)S(=O)(=O)c1ccc(Cl)c([N+](=O)[O-])c1)NCc1ccccc1`, for which the cell number change turned out to be 20.5%. Further, under setting [2], the AC50 was 3.26 µM [rising, single point]. The AC50 under setting [1] was 10.3 µM [falling, partial curve, poor fit].

As to `O=C1Nc2ccccc2S/C1=C/Nc1cccc(Cl)c1`, the cell number change was -14.6%. Besides, under setting [2], the AC50 is 0.517 µM [rising, single point]. Also, the AC50 under setting [1] was 0.116 µM [rising, full curve, poor fit].

In the case of `C/C(=N\O)c1ccc2c3ccccc3n(C)c2c1`, the cell number change is -20.4%. Besides, the AC50 under setting [1] is 29.1 µM [falling, single point].

Take `COC(=O)c1ccccc1OCCN1CCCCCC1`: the cell number change was -36.7%. Besides, the AC50 under setting [2] is 29.1 µM [falling, single point]. Also, the AC50 under setting [1] is 32.6 µM [falling, single point].

As to `Cc1ccc(NC(=O)COC(=O)c2ccc3c(c2)NC(=O)C2CCCN32)cc1C` (centres undefined), the cell number change is 47.7%. The AC50 under setting [2] is 29.1 µM [rising, single point]. Also, the AC50 under setting [1] was 29.1 µM [rising, single point].
